Results are given in words; binding and its absence hold for the method and conditions named. For part of these data: In cells and extracts the contact can be indirect. Some results given as binding are weak or reduced against the parent protein; the word gives no strength. For part of these data: Sequences can lack the tags named with a protein.
Columns and labels:
[1] = target: T1, human endoglin, full-length, from pcEXV-HA-EngFL (human) (UniProt P17813); assay: co-IP; CHO-K1 cells co-transfected with pcEXV-HA-EngFL and pcDNA3.1-Gal-3; lysis in 1% NP-40, 150 mM NaCl, 50 mM Tris pH 7.4; IP with anti-endoglin or anti-galectin-3 on protein G magnetic beads overnight at 4 °C; Western blot
T1 sequence: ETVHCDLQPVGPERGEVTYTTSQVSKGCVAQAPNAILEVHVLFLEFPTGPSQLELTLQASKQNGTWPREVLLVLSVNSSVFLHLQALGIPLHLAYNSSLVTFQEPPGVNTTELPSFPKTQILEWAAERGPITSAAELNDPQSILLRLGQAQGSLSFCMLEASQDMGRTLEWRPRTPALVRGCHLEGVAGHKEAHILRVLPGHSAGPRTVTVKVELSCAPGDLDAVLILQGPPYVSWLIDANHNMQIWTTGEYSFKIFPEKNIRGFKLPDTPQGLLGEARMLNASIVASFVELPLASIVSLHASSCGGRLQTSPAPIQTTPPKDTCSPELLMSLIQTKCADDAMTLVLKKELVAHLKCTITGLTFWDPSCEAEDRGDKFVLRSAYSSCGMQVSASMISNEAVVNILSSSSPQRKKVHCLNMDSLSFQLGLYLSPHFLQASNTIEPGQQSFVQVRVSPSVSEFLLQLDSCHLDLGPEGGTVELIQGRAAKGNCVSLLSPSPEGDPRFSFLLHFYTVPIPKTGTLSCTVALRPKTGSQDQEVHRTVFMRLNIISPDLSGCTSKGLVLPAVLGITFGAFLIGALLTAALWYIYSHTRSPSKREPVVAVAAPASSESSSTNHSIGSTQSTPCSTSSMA

Protein sequences, listed by entry. Tags and fused reporters are not part of them.
UniProt Q8NE71: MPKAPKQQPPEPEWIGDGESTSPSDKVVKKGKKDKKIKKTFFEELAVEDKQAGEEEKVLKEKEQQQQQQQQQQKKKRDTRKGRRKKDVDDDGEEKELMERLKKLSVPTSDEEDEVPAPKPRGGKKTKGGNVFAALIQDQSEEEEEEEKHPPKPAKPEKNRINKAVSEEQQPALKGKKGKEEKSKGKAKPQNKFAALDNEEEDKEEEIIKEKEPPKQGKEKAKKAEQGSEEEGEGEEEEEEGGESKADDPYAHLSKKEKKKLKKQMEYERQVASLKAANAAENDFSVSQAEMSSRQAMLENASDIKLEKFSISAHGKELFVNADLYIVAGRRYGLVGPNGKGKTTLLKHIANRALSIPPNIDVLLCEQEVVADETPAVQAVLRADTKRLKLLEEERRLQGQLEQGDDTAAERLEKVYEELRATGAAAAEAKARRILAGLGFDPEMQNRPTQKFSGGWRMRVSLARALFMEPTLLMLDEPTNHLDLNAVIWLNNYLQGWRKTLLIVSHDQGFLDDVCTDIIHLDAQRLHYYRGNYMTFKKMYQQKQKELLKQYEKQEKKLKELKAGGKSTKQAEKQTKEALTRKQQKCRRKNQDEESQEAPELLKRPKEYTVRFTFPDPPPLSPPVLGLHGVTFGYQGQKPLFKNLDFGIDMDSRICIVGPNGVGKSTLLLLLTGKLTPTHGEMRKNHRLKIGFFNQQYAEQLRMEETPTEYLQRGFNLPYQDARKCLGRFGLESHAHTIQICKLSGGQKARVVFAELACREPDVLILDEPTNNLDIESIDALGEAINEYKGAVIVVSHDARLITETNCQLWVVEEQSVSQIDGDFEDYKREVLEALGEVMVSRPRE
UniProt Q14151: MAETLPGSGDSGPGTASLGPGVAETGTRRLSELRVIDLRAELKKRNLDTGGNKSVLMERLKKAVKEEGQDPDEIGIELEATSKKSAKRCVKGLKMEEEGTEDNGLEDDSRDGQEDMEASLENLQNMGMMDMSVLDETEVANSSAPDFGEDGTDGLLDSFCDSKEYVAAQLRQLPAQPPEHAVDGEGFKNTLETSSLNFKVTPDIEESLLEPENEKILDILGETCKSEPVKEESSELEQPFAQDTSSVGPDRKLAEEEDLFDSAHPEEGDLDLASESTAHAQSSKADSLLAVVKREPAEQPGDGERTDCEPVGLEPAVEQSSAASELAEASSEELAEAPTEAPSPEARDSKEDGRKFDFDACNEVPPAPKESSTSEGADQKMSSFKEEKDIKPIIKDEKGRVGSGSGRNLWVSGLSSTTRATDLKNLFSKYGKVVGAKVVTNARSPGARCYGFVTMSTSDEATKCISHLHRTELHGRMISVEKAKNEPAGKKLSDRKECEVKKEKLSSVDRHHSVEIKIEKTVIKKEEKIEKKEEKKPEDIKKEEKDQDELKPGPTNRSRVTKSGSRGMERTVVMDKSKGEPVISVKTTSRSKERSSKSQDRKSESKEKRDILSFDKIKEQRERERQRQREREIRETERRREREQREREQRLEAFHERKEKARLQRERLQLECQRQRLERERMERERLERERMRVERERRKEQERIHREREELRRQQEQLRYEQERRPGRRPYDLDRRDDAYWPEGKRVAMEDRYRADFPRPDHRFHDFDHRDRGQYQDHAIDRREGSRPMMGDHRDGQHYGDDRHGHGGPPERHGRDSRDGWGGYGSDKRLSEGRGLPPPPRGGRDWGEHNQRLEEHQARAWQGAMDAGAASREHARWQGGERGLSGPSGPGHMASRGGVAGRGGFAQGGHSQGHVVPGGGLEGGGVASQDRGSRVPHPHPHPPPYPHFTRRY
UniProt P17931: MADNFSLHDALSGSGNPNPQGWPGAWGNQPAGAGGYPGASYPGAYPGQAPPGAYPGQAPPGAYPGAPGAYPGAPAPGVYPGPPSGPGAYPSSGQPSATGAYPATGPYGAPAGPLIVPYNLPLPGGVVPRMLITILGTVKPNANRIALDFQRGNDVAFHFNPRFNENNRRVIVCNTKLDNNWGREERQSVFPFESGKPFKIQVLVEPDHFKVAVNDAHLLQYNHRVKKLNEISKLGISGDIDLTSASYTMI

[2] = target: T2, Sciellin (SCEL) (human) (UniProt O95171); assay: peptide or protein array; ProtoArray human protein Microarray v5.0 (over 9000 human proteins arrayed) probed with recombinant sEng in two replicates; detection with anti-endoglin mAb SN6h and HRP secondary antibody; hits with Z-score >=2.0 in both arrays; both purified
T2 sequence: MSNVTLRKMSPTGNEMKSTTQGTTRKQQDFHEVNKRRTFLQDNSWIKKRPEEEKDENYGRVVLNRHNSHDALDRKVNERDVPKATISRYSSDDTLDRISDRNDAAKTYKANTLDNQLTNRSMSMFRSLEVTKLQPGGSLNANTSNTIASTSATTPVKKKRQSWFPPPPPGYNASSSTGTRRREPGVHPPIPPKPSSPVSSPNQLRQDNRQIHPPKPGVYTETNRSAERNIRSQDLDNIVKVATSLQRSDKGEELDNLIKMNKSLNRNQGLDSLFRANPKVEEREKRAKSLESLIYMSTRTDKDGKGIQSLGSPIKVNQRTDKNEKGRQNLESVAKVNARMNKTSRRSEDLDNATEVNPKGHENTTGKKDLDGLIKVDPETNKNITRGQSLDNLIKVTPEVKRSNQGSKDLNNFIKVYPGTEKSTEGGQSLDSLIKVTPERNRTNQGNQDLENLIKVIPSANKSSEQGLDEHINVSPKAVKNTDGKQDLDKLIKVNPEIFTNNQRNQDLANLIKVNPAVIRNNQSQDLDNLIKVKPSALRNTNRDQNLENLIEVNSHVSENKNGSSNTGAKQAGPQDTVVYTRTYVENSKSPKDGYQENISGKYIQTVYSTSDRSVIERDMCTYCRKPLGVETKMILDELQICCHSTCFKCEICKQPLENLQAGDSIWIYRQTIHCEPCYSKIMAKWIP

[3] = target: ATP-binding cassette, sub-family F (GCN20), member 1 (ABCF1) (human) (UniProt Q8NE71); assay: as above
[4] = target: T3, Putative E3 ubiquitin-protein ligase SH3RF2 (human) (UniProt Q8TEC5); assay: as above
T3 sequence: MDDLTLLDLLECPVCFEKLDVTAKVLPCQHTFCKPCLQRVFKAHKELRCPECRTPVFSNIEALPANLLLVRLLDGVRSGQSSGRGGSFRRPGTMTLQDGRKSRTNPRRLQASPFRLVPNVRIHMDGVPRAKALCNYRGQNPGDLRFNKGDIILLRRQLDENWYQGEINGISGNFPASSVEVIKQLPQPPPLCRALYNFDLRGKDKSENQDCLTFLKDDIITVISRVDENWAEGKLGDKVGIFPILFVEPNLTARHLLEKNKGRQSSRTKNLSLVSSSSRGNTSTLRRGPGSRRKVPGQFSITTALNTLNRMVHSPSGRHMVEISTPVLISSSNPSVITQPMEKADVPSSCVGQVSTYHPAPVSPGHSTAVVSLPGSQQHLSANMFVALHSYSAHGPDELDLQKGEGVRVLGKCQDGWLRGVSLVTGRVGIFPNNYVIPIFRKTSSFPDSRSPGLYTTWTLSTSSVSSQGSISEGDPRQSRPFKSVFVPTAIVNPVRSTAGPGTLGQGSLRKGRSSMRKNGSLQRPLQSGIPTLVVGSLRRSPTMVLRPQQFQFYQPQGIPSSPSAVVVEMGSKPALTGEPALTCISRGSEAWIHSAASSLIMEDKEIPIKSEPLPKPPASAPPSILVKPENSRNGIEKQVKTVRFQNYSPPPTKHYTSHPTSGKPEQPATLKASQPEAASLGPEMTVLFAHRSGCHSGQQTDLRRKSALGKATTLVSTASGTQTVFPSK

[5] = target: Scaffold attachment factor B2 (SAFB2) (human) (UniProt Q14151); assay: as above
[6] = target: T4, Stromal membrane-associated protein 1 (SMAP1) (human) (UniProt Q8IYB5); assay: as above
T4 sequence: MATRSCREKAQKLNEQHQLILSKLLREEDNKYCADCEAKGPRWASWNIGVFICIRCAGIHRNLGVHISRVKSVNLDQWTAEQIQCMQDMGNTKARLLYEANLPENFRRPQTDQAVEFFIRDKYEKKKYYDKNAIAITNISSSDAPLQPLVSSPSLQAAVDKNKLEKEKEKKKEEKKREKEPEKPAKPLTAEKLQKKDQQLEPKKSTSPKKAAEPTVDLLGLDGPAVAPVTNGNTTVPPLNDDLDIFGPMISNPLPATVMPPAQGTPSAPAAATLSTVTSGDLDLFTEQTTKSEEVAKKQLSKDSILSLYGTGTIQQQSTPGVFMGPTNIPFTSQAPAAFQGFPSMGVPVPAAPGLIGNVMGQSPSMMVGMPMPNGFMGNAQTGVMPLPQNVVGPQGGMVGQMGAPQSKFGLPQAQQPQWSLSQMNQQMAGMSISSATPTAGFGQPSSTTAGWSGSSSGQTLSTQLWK

Measured: binding

human galectin-3 from pcDNA3.1-Gal-3 (from UniProt P17931 1-250)
binds: [1]

recombinant human soluble endoglin (sEng; Glu26-Gly586) (from UniProt P17813 26-586) (domain or fragment)
not listed: [1]
binds: all other assays above

Source: paper PMC6769930
